Experimental data: PubChem BioAssay AID1159579 (Peter MacCallum Cancer Centre, 2015)
This is an unselected part of about 2,000 deposited reagents. In the full data, 549 (27%) got an active call. 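Some migration ratios are negative; siRNAs with too few cells are inactive whatever their migration ratio.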 A number with no mark means an inactive call. Reagents against one gene are numbered here. Not all columns of the deposit are shown. The record does not give: the time to read-out.

Purpose: 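Retest candidate lymphatic endothelial migration regulators using several independent siRNAs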 (follow-up of hits)
Cells: human dermal lymphatic endothelial cells
Reagent: single siRNA against human genes, 25 nM
Detection: 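Scratch wound imaging measuring area filled by moving cells plus nuclei number, averaged over two wells and scaled to mock-transfected controls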
Reading the numbers: migration relative to mock: higher = more migration into the scratch; mean nuclei count: higher = more cells remaining
Active means: 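Called active when the migration ratio is 0.6 or lower (impaired) or 1.3 or higher (accelerated), but inactive whenever the mean nuclei count falls under 3300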
Meaning of the calls: active = migration changed (impaired or accelerated); inactive = no migration change, or too few cells

TES #1: migration relative to mock = 0.36 (active); mean nuclei count = 4864
TES #2: migration relative to mock = 0.88; mean nuclei count = 5566
TES #3: migration relative to mock = 1.08; mean nuclei count = 6044
TES #4: migration relative to mock = 0.04 (active); mean nuclei count = 3600
KLK11 #1: migration relative to mock = 0.66; mean nuclei count = 4284
KLK11 #2: migration relative to mock = 0.01 (active); mean nuclei count = 5876
KLK11 #3: migration relative to mock = 0.83; mean nuclei count = 6600
KLK11 #4: migration relative to mock = 0.72; mean nuclei count = 6311
CRIPT #1: migration relative to mock = 1; mean nuclei count = 5776
CRIPT #2: migration relative to mock = 0.61; mean nuclei count = 5584
CRIPT #3: migration relative to mock = 0.96; mean nuclei count = 5566
CRIPT #4: migration relative to mock = 0.94; mean nuclei count = 5674
SKAP2 #1: migration relative to mock = 1.1; mean nuclei count = 5330
SKAP2 #2: migration relative to mock = 1.02; mean nuclei count = 5344
SKAP2 #3: migration relative to mock = 0.1 (active); mean nuclei count = 4435
SKAP2 #4: migration relative to mock = 1.07; mean nuclei count = 6255
TPD52L1 #1: migration relative to mock = 0.18 (active); mean nuclei count = 4494
TPD52L1 #2: migration relative to mock = 0.88; mean nuclei count = 5672
TPD52L1 #3: migration relative to mock = 0.37 (active); mean nuclei count = 4853
TPD52L1 #4: migration relative to mock = 0.96; mean nuclei count = 6258
TYRO3 #1: migration relative to mock = 0.46 (active); mean nuclei count = 5280
TYRO3 #2: migration relative to mock = 0.94; mean nuclei count = 6893
TYRO3 #3: migration relative to mock = 0.68; mean nuclei count = 5563
TYRO3 #4: migration relative to mock = 0.56 (active); mean nuclei count = 5746
TRMT61B #1: migration relative to mock = 0.92; mean nuclei count = 4862
TRMT61B #2: migration relative to mock = 0.9; mean nuclei count = 3786
TRMT61B #3: migration relative to mock = 0.92; mean nuclei count = 5532
TRMT61B #4: migration relative to mock = 0.78; mean nuclei count = 5373
CUEDC2 #1: migration relative to mock = 1.08; mean nuclei count = 6455
CUEDC2 #2: migration relative to mock = 0.54; mean nuclei count = 3264
CUEDC2 #3: migration relative to mock = 0.98; mean nuclei count = 6245
CUEDC2 #4: migration relative to mock = 1.19; mean nuclei count = 6087
FAM222B #1: migration relative to mock = 0.71; mean nuclei count = 4042
FAM222B #2: migration relative to mock = 1.1; mean nuclei count = 5862
FAM222B #3: migration relative to mock = 0.79; mean nuclei count = 6020
FAM222B #4: migration relative to mock = 0.82; mean nuclei count = 6012
STK38 #1: migration relative to mock = 0.38 (active); mean nuclei count = 5453
STK38 #2: migration relative to mock = 0.27 (active); mean nuclei count = 4136
STK38 #3: migration relative to mock = 0.7; mean nuclei count = 6010
STK38 #4: migration relative to mock = 0.78; mean nuclei count = 4845
CORO2B #1: migration relative to mock = 1; mean nuclei count = 5034
CORO2B #2: migration relative to mock = 0.82; mean nuclei count = 5005
CORO2B #3: migration relative to mock = 1.02; mean nuclei count = 5933
CORO2B #4: migration relative to mock = 0.86; mean nuclei count = 5092
ISL2 #1: migration relative to mock = 0.7; mean nuclei count = 6202
ISL2 #2: migration relative to mock = 1.04; mean nuclei count = 6034
ISL2 #3: migration relative to mock = 0.36 (active); mean nuclei count = 4066
ISL2 #4: migration relative to mock = 0.13 (active); mean nuclei count = 4539

Records listed so far whose target name starts with C or c:
CRIPT #1: migration relative to mock = 1; mean nuclei count = 5776
CRIPT #2: migration relative to mock = 0.61; mean nuclei count = 5584
CRIPT #3: migration relative to mock = 0.96; mean nuclei count = 5566
CRIPT #4: migration relative to mock = 0.94; mean nuclei count = 5674
CUEDC2 #1: migration relative to mock = 1.08; mean nuclei count = 6455
CUEDC2 #2: migration relative to mock = 0.54; mean nuclei count = 3264
CUEDC2 #3: migration relative to mock = 0.98; mean nuclei count = 6245
CUEDC2 #4: migration relative to mock = 1.19; mean nuclei count = 6087
CORO2B #1: migration relative to mock = 1; mean nuclei count = 5034
CORO2B #2: migration relative to mock = 0.82; mean nuclei count = 5005
CORO2B #3: migration relative to mock = 1.02; mean nuclei count = 5933
CORO2B #4: migration relative to mock = 0.86; mean nuclei count = 5092
